From PubChem BioAssay (NCATS)
Inconclusive means that the source gave no clear call. Such entries were picked first, then a sample of the others. Where the call is inconclusive, the potency comes from a doubtful curve fit. The source made the active and inactive calls. Calls follow the shape of the dose curve; as a rule, active = well fitted inhibition curve with a large enough effect; inconclusive = small, poorly fitted or top-dose-only effect; inactive = no such curve, though single readings can be large or run the other way.

Sequences of proteins named here, by UniProt entry; tags and fusion partners are left off. A change or cut given only in a name is not applied to a line headed by its entry.
UniProt Q99816: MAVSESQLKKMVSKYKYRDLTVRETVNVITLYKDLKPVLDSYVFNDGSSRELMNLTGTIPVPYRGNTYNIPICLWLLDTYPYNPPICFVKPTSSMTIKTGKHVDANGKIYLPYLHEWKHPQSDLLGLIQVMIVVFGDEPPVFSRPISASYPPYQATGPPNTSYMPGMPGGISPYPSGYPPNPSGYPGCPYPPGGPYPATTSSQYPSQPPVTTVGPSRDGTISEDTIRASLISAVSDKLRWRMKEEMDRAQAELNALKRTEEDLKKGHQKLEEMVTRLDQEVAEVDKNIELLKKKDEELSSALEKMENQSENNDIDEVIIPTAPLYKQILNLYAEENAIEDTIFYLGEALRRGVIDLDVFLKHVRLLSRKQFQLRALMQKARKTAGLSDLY

molecular target: Tumor susceptibility gene 101 protein (Homo sapiens) (UniProt Q99816); test: qHTS Assay for Iinhibitors of HIV-1 Budding by Blocking the Interaction of PTAP/TSG101: Hit Validation (AID 651600); conditions: PTAP peptide/TSG101 UEV interaction, biochemical assay; series mostly up to 57.5 µM; activity change, negative = inhibition: at the top concentration; also: nearly all actives have a fitted effect of over 70% in size
Procedure, shortened: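 Displacement of a FITC-labeled PTAP-motif peptide (50 nM) from the Tsg101 binding domain (10 uM) was monitored by fluorescence polarization after a 20 min room-temperature incubation.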
% is scaled to controls: 0 for no effect and ±100 for the full control effect; potency is read from the fitted curve at half-maximal effect.

| SMILES | Potency | activity change, negative = inhibition |
| --- | --- | --- |
| COC(=O)C[n+]1cccc2ccccc21 | inconclusive: 16.3 µM [inhibitor, partial curve] | – |
| O=C1Nc2ccccc2/C1=C/c1cnc(-c2ccccc2)[nH]1 | inconclusive: 25.9 µM [inhibitor, partial curve, poor fit] | – |
| CC(=O)Nc1ccc(N=Cc2c(O)ccc3ccccc23)cc1 | active: 29.1 µM | – |
| Cn1cc(/C=C(\C#N)C(=O)Nc2ccccc2O)c2ccccc21 | – | inactive: -11.1% |
| Cc1cc(=O)oc(C)c1C(=O)Nc1ccc2ncccc2c1 | inconclusive: 32.6 µM [inhibitor, single point] | – |
| Oc1ccc2ccccc2c1C=Nc1ccccc1Br | inconclusive: 46.1 µM [inhibitor, single point] | – |
| Cc1ccc(N2C(=O)c3cccc4c(N5CCN(C)CC5)ccc(c34)C2=O)c2cccnc12 | inconclusive: 2.59 µM [inhibitor, full curve] | – |
| Cc1ccccc1N1C(=O)c2cccc3c(N(C)CCO)ccc(c23)C1=O | active: 13 µM | – |
| CC(C)c1cc(=O)oc2c3c4c(cc12)CCCN4CCC3 | active: 5.17 µM | – |
| COC(=O)C[C@H]1c2cc(F)ccc2S(=O)(=O)N1c1ccccc1 | – | inactive: 2.09% |
| COc1ncnc2c1NC1=C(S2)C(=NCCC(=O)O)CC(C)(C)C1 | inconclusive: 25.9 µM [inhibitor, single point] | – |
| O=c1oc2ccccc2nc1/C=C(\O)c1ccc(Br)cc1 | inconclusive: 46.1 µM [inhibitor, single point] | – |
| O=C(NC1CCCCC1)c1cccc2c1C(=O)c1ccc(N3CCC(Cc4ccccc4)CC3)cc1S2(=O)=O | inconclusive: 8.19 µM [inhibitor, full curve] | – |
| O=C(NC1CC1)c1cccc2c1C(=O)c1ccc(N3CCC(Cc4ccccc4)CC3)cc1S2(=O)=O | inconclusive: 46.1 µM [inhibitor, single point] | – |
| COc1ccc2c(C#N)c3ccccn3c2c1 | inconclusive: 46.1 µM [inhibitor, single point] | – |
| O=C(NCc1cccc(F)c1)c1cccc2c1C(=O)c1ccc(N3CCC(Cc4ccccc4)CC3)cc1S2(=O)=O | active: 10.3 µM | – |
| Cc1ccccc1-c1ccc(/C=C2/SC(N3CCOCC3)=NC2=O)o1 | – | inactive: 6.42% |
| O=C1/C(=N\S(=O)(=O)c2cccs2)C([n+]2cccc(Cc3ccccc3)c2)=C([O-])c2ccccc21 | active: 16.3 µM | – |
| CC(=O)Nc1ccc2cc3ccc(NC(C)=O)cc3nc2c1 | inconclusive: 14.6 µM [inhibitor, partial curve] | – |
| Cc1ccc(-c2cccc(NC(=O)C3C4C=CC(C4)C3C(=O)O)c2)o1 (configuration not stated) | inconclusive: 32.6 µM [inhibitor, single point] | – |
| Cn1cc(/C=C2\SC(=S)N(NC(=O)c3cccc(Cl)c3)C2=O)c2ccccc21 | inconclusive: 32.6 µM [inhibitor, single point] | – |
| Cc1ccc(CNC(=O)C2CCCN(S(=O)(=O)c3c(C)[nH]c(=O)[nH]c3=O)C2)cc1 (configuration not stated) | – | inactive: -6.89% |
| O=C(c1cnn(C(=O)c2ccco2)c1)c1cc(Cl)cc(Cl)c1O | inconclusive: 32.6 µM [inhibitor, single point] | – |
| O=c1[nH]c(S)c(/C=C2\C=Nc3ccccc32)s1 | inconclusive: 3.26 µM [inhibitor, full curve] | – |
| CCOc1ccc(Cn2c3ccc(OC)cc3c3nc4ccccc4nc32)cc1 | inconclusive: 29.1 µM [inhibitor, single point] | – |
| COc1ccc(OC)c(/C=C(\C#N)c2nc(-c3ccc(F)cc3)cs2)c1 | – | inactive: -0.321% |
| Cc1ccccc1N1CCN(c2ccccc2NC(=O)/C=C\C(=O)O)CC1 | inconclusive: 20.6 µM [inhibitor, partial curve, poor fit] | – |

Two entries picked at random from those above:

| SMILES | Potency | activity change, negative = inhibition |
| --- | --- | --- |
| O=C(NCc1cccc(F)c1)c1cccc2c1C(=O)c1ccc(N3CCC(Cc4ccccc4)CC3)cc1S2(=O)=O | active: 10.3 µM | – |
| Cc1cc(=O)oc(C)c1C(=O)Nc1ccc2ncccc2c1 | inconclusive: 32.6 µM [inhibitor, single point] | – |
